Measured values: PubChem BioAssay AID1671190 (National Center for Advancing Translational Sciences (NCATS), 2021)
Values joined by “and” are separate entries in the source; they are usually repeats but may differ in a detail not shown here. Identical values can stand only once. About 6,100 (1.1%) of roughly 580,000 compounds were called active. The shares of active, inactive and inconclusive entries below differ from those in the screen. Calls follow the shape of the dose curve; as a rule, active = well fitted inhibition curve with a large enough effect; inconclusive = small, poorly fitted or top-dose-only effect, or another doubt; inactive = no such curve, though single readings can be large or run the other way. Where the call is inconclusive, the potency comes from a doubtful curve fit.

The chains behind the UniProt entries cited, without tags or fusion partners.
UniProt P18054, whole entry, looked up: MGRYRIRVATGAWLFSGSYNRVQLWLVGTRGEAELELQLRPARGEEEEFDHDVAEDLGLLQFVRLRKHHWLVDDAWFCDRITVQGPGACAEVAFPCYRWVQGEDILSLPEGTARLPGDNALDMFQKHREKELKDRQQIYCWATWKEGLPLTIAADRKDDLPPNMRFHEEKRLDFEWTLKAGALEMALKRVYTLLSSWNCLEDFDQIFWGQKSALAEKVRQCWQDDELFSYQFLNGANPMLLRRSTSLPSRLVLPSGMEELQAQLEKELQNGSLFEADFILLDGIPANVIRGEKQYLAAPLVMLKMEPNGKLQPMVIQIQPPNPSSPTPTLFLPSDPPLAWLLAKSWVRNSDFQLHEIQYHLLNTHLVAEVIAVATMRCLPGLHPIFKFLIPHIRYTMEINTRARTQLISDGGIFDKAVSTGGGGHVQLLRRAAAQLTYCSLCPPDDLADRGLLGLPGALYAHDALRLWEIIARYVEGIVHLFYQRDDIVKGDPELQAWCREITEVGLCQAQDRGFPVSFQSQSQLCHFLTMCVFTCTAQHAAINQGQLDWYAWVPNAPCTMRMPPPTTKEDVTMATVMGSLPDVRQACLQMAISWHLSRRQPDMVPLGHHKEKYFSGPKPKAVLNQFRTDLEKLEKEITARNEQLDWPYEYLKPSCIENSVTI

Target: Polyunsaturated fatty acid lipoxygenase ALOX12 (Homo sapiens) (UniProt P18054)
Assay: Primary qHTS assay for inhibitors of human arachidonate 12S-lipoxygenase (ALOX12): Round 2
Conditions: purified 12hLO, xylenol orange hydroperoxide absorbance; activity change, negative = inhibition: at 108 µM (top of the series) unless noted
Outline: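 Purified human 12hLO (150 nM final) in 25 mM Hepes, 0.01% Triton X-100, pH 7.0 was preincubated 15 min at room temperature with compound. Then 40 uM arachidonic acid was added, 30 min. Hydroperoxide was read by Fe-XO absorbance ratio 573/405 nm.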
% is scaled to controls: 0 for no effect and ±100 for the full control effect; potency is read from the fitted curve at half-maximal effect.

Row | Structure (SMILES) | activity change, negative = inhibition | Potency
1 | O=C(Nc1nnc(-c2ccncc2)o1)c1ccccc1F | inactive: -12.9% | 
2 | O=C(CSc1nc2ccsc2c(=O)n1Cc1ccc(F)cc1)NCc1ccc(Cl)cc1 | inactive: -8.43% | 
3 | COc1cc(/C=N/N(C)c2ccccc2)cc(Cl)c1O |  | active: 15.8 µM
4 | COC1C=COC2(C)Oc3c(C)c(O)c4c(O)c(c(CN5CCN(C)CC5)c(O)c4c3C2=O)NC(=O)C(C)=CC=CC(C)C(O)C(C)C(O)C(C)C(OC(C)=O)C1C (stereo unspecified) |  | inconclusive: 39.8 µM [inhibitor, partial curve]
5 | CC(Oc1ccccc1F)C(=O)/C=C/N(C)C (stereo unspecified) |  | inconclusive: 63.1 µM [inhibitor, partial curve, poor fit]
6 | CCn1nnnc1SCC(=O)N1CCCc2ccccc21 | inactive: 47.3% | 
7 | Cc1ccc(NC(=O)CCn2nnc3ccccc32)c(C)c1 |  | inconclusive: 50.1 µM [inhibitor, partial curve, poor fit]
8 | CCN(CC)S(=O)(=O)c1ccc(C)c(N=CN(C)C)c1 | inactive: 34.2% | 
9 | O=C(N/N=C/c1cccnc1)c1cc(O)c(O)c(O)c1 |  | inconclusive: 8.91 µM [inhibitor, full curve, poor fit]
10 | CN1c2ccc(Cl)cc2-c2nc(SCC(=O)NCc3ccc(F)cc3)ncc2S1(=O)=O |  | inconclusive: 100 µM [inhibitor, partial curve, poor fit]
11 | Nc1nc(NCCN2CCOCC2)nc(NCc2ccccc2)c1[N+](=O)[O-] | inactive: -13.4% | 
12 | N#Cc1ccccc1NS(=O)(=O)c1cc2c3c(c1)CCC(=O)N3CCC2 |  | inconclusive: 50.1 µM [inhibitor, partial curve, poor fit]
13 | CCN(c1ccccc1)S(=O)(=O)c1cc2c(cc1C)N(C)CCO2 | inactive: 394% | 
14 | Nc1ccc2[nH]c(=S)[nH]c2c1 |  | inconclusive: 35.5 µM [inhibitor, partial curve, poor fit]
15 | Cc1nn(-c2cccc(Br)c2)c(C)c1[C@@H]1C=C[C@@H](NC(=O)CC(C)(C)CC(=O)O)C1 |  | inconclusive: 7.08 µM [inhibitor, full curve]
16 | Cc1cc(C)cc(OCCCN2CCC(C(O)(c3ccccc3)c3ccccc3)CC2)c1 |  | inconclusive: 44.7 µM [inhibitor, partial curve, poor fit]
17 | O=C(Nc1ccc(Cl)c(S(=O)(=O)N2CCCC2)c1)c1n[nH]c2ccccc12 | inactive: -13.5% | 
18 | COc1cc2c(cc1OC)C(c1cccc([N+](=O)[O-])c1)N(C(=O)c1ccccc1C(=O)O)CC2 (stereo unspecified) | inactive: -0.629% | 
19 | COc1cccc(-c2cncnc2NC2CCNCC2)c1 |  | inconclusive: 12.6 µM [inhibitor, partial curve, poor fit]
20 | O=C(CCS(=O)(=O)Cc1ccccc1)N1CCN(c2ccc([N+](=O)[O-])cc2)CC1 | inactive: -27.3% | 
21 | CCc1c(C)sc(NC(=O)c2cccnc2)c1C#N |  | inconclusive: 28.2 µM [inhibitor, partial curve, poor fit]
22 | CCCCn1c(N)c(N(CC(C)C)C(=O)CCCc2nc3ccccc3c(=O)[nH]2)c(=O)[nH]c1=O |  | inconclusive: 35.5 µM [inhibitor, partial curve, poor fit]

Row | Structure (SMILES) | activity change, negative = inhibition | Potency
23 | CCCCN(C(=O)c1ccc(N2CCCC2=O)cc1)c1c(N)n(CCCC)c(=O)[nH]c1=O |  | inconclusive: 112 µM [inhibitor, single point]
24 | Cc1cc(O)c(C(C)C)cc1NC(=O)Nc1cc(Cl)ccc1Cl |  | inconclusive: 44.7 µM [inhibitor, partial curve, poor fit]
25 | CC1CCCC(C)N1CC(O)COc1ccc(Cl)cc1 (stereo unspecified) |  | inconclusive: 44.7 µM [inhibitor, partial curve, poor fit]
26 | O=C([C@@H]1C[C@H](F)CN1C(=O)c1ccc(OC(F)(F)F)cc1)N1CCCCC1 | inactive: 3.37% | 
27 | CCOC(=O)c1ccc(NC(=O)CN2C(=O)C(=O)N(CC(C)C)C2=O)cc1 |  | inconclusive: 141 µM [inhibitor, partial curve, poor fit]
28 | Cc1ccc(C(=O)/C=C/c2ccc(O)cc2)cc1C |  | inconclusive: 44.7 µM [inhibitor, partial curve, poor fit]
29 | O=C(CSc1ccsc1[N+](=O)[O-])N1CCN(c2ccc(Cl)cc2)CC1 |  | inconclusive: 44.7 µM [inhibitor, partial curve, poor fit]
30 | COc1ccc2c(c1)CCc1c-2n[nH]c1C(=O)N1CCc2c(nc3cc(-c4ccccc4)[nH]n3c2=O)C1 |  | inconclusive: 31.6 µM [inhibitor, full curve, poor fit]
31 | Cc1ccc(NC(=O)CN(C)C(=O)COC(=O)c2ccc(Cl)cc2O)cc1 |  | inconclusive: 50.1 µM [inhibitor, single point]
32 | CC1=CC2=NC(=O)/C(=C/c3coc4ccc(Cl)cc4c3=O)C(=N)N2O1 | inactive: 202% | 
33 | O=C(CCOc1ccccc1)N1CCN(c2ccc(O)cc2)CC1 |  | inconclusive: 1.12 µM [inhibitor, full curve, poor fit]
34 | COc1ccccc1N(C)S(=O)(=O)c1ccc(Cl)c(C(=O)NCc2cccnc2)c1 | inconclusive: -31.5% [inhibitor] | 
35 | CCCOc1ccc(CN(C)c2ncnc(N)n2)cc1 |  | inconclusive: 158 µM [inhibitor, single point]
36 | CCOc1ccc(CCNC(=O)c2cc3c(s2)-c2ccccc2S(=O)(=O)C3)cc1 | inactive: -30.3% | 
37 | CC(C)CCN1CCC(N2CCN(S(=O)(=O)c3cccc(C(F)(F)F)c3)CC2)C1=O (stereo unspecified) |  | inconclusive: 5.01 µM [inhibitor, full curve, poor fit]
38 | COCCNC(=O)Cn1nc(-c2ccccc2)c2ccccc2c1=O |  | inconclusive: 17.8 µM [inhibitor, single point]
39 | COc1cccc(CC(=O)OCC(=O)NCCc2ccc(F)cc2)c1 |  | inconclusive: 126 µM [inhibitor, single point]
40 | Nc1nc(N)c(N=O)c(OCC2CCCCC2)n1 |  | inconclusive: 21.7 µM [inhibitor, partial curve]
41 | Cc1cccc(-n2ncc3c(NCc4ccco4)ncnc32)c1 |  | inconclusive: 39.8 µM [inhibitor, partial curve, poor fit]
42 | COC1=C(OC)C(=O)C(Sc2ccc3ccccc3c2)=CC1=O |  | active: 2 µM
43 | CC(C)COc1ccc(/C=C(/C#N)c2ccc(Cl)cc2)cc1 |  | inconclusive: 44.7 µM [inhibitor, partial curve, poor fit]
44 | Cc1cc(S(=O)(=O)NC2CCCCC2)ccc1-n1cnnn1 | inactive: -0.209% | 

Row | Structure (SMILES) | activity change, negative = inhibition | Potency
45 | O=S(=O)(NCCc1noc(-c2ccccc2)n1)c1ccc(Cl)cc1 |  | inconclusive: 14.1 µM [inhibitor, full curve, poor fit]
46 | CC(C)c1ccc(S(=O)(=O)NCC(c2cccnc2)S(=O)(=O)c2ccccc2)cc1 (stereo unspecified) |  | inconclusive: 31.6 µM [inhibitor, partial curve, poor fit]
47 | CCCS(=O)(=O)Nc1ccc(Nc2c3ccccc3nc3ccccc23)c(OC)c1 |  | inconclusive: 50.1 µM [inhibitor, partial curve, poor fit]
48 | O=C(NC(=S)Nc1ccc(CN2CCOCC2)cc1)c1ccc2c(c1)OCCO2 | inactive: 0% | 
49 | CC(NC(=O)Cn1c(=O)oc2cc(S(=O)(=O)N3CCCCCC3)ccc21)c1ccccc1 (stereo unspecified) |  | inconclusive: 100 µM [inhibitor, partial curve, poor fit]
50 | COCCn1ncc(N2CCCC(CC(=O)NCc3ccc(F)cc3F)C2)cc1=O (stereo unspecified) | inactive: 8.06% | 
51 | CC(NC(=O)c1cc2c(=O)n3ccccc3nc2n(C(C)C)c1=N)c1ccccc1 (stereo unspecified) |  | inconclusive: 56.2 µM [inhibitor, partial curve, poor fit]
52 | O=C(CN1C(=O)CSC1=O)NCc1ccccc1 |  | inconclusive: 39.8 µM [inhibitor, partial curve, poor fit]
53 | COC(=O)c1ccccc1NC(=O)c1nc(-c2ccc(C)cc2)n2c1CCCCC2 | inactive: 0% | 
54 | CCC(C)Sc1cc(-c2nc3cc(C)ccn3c2NC2CCCCC2)ccc1OC (stereo unspecified) |  | inconclusive: 56.2 µM [inhibitor, partial curve, poor fit] and inconclusive: 79.4 µM [inhibitor, single point]
55 | N#Cc1ccc(NC(=O)COC(=O)c2ccccc2Oc2ccccc2)cc1 | inactive: -29% | 
56 | O=C(NCc1ccccc1)NCC12CC3CC(CC(C3)C1)C2 | inactive: -0.166% | 
57 | CC(C)(C)NCCOCCOc1ccccc1-c1ccccc1 | inactive: -23.5% | 
58 | Cc1cccc(-c2noc(-c3cc(C(C)C)[nH]n3)n2)c1 |  | inconclusive: 56.2 µM [inhibitor, partial curve, poor fit]
59 | Cc1cccc2cc(CN(CC3CCCO3)C(=O)c3ccco3)c(=O)[nH]c12 (stereo unspecified) |  | inconclusive: 39.8 µM [inhibitor, partial curve, poor fit]
60 | O=[n+]1c2c(n([O-])c3cc(Br)ccc31)CCC2 |  | inconclusive: 70.8 µM [inhibitor, partial curve, poor fit]
61 | CCCc1nc(SC)ncc1C(=O)Nc1ccc(Cl)cc1C |  | inconclusive: 5.62 µM [inhibitor, full curve, poor fit]
62 | CNC(=O)N(O)C1N(/N=C/c2ccccc2F)C(=S)SC1(C)C (stereo unspecified) | inactive: 0.276% | 
63 | O=c1c(-c2ccccc2)coc2cc(O)cc(O)c12 |  | inconclusive: 1 µM [inhibitor, full curve, poor fit]
64 | CC(=O)N1c2ccccc2C(=O)C1N1CCN(c2cccc(Cl)c2)CC1 (stereo unspecified) |  | inconclusive: 100 µM [inhibitor, partial curve, poor fit]
65 | CCOc1cc2ccccc2cc1C(=O)Nc1nnc(C)s1 | inactive: 8.44% | 
66 | O=C(Cc1csc2ccccc12)NCC1CC1 |  | inconclusive: 141 µM [inhibitor, partial curve, poor fit]
